Reference: PMC5705802
For at least one entry, the source does not settle the construct or the ends of the probe. For part of these data: No signal at the amounts used counts as a negative. For part of these data: Protein sequences can lack the tags named with them. For part of these data: A weaker result is weaker than the reference pair of the same experiment.

Protein sequences, listed by entry. Tags and fused reporters are not part of them. Lines headed by an entry give the natural chain unless they say otherwise; changes in a name come on top.
UniProt O15525: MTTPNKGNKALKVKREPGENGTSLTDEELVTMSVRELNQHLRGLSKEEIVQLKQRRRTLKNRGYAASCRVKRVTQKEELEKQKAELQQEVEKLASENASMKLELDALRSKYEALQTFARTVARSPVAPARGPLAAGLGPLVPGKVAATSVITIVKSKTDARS
UniProt P05412, whole entry: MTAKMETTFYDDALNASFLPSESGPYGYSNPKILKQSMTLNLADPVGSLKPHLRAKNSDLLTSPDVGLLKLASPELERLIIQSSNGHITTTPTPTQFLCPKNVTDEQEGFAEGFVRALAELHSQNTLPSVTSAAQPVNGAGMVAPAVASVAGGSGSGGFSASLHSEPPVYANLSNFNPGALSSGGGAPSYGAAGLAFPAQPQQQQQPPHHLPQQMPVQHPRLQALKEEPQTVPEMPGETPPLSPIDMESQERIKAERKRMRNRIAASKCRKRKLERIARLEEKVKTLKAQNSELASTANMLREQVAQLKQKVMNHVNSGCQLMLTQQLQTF
UniProt P01100, whole entry: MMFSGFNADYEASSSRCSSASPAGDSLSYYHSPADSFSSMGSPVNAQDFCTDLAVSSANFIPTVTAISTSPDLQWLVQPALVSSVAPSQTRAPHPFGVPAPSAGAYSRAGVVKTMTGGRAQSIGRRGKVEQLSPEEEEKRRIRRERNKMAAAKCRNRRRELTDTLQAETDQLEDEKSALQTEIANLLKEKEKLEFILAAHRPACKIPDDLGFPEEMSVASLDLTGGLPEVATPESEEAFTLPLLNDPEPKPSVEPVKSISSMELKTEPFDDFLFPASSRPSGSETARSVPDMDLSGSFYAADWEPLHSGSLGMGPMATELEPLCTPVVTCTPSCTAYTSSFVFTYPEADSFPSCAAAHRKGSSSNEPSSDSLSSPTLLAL

How the values were obtained:
[1] = target: MAFG (UniProt O15525); assay: EMSA; conditions: MAFG only, 37.5 nM; 20 mM HEPES (pH not stated), 4 mM MgCl2, 20 mM KCl, 5 mM DTT, 1 mM EDTA, 100 ug/ml BSA, 4% glycerol, poly(dI-dC), 30 min room temperature; native gel 1X TBE; commercial protein; label: IRDye-700 as probe, unlabeled as competitor
[2] = target: JUN (UniProt P05412); assay: EMSA; conditions: JUN only, 75 nM; 20 mM HEPES (pH not stated), 4 mM MgCl2, 20 mM KCl, 5 mM DTT, 1 mM EDTA, 100 ug/ml BSA, 4% glycerol, poly(dI-dC), 30 min room temperature; native gel 1X TBE; commercial protein; label: IRDye-700 as probe, unlabeled as competitor
[3] = target: FOS (UniProt P01100); assay: EMSA; conditions: FOS only, 75 nM; 20 mM HEPES (pH not stated), 4 mM MgCl2, 20 mM KCl, 5 mM DTT, 1 mM EDTA, 100 ug/ml BSA, 4% glycerol, poly(dI-dC), 30 min room temperature; native gel 1X TBE; commercial protein; label: IRDye-700 as probe, unlabeled as competitor
[4] = target: T1, NRF2 (Homo sapiens) (UniProt Q16236); assay: EMSA; conditions: NRF2 only, 75 nM; 20 mM HEPES (pH not stated), 4 mM MgCl2, 20 mM KCl, 5 mM DTT, 1 mM EDTA, 100 ug/ml BSA, 4% glycerol, poly(dI-dC), 30 min room temperature; native gel 1X TBE; recombinant protein; protein details: His, Flag3 (plasmid pPROHEX-HC-Flag3-NRF2); label: IRDye-700 as probe, unlabeled as competitor
T1 sequence (looked up, limits assumed): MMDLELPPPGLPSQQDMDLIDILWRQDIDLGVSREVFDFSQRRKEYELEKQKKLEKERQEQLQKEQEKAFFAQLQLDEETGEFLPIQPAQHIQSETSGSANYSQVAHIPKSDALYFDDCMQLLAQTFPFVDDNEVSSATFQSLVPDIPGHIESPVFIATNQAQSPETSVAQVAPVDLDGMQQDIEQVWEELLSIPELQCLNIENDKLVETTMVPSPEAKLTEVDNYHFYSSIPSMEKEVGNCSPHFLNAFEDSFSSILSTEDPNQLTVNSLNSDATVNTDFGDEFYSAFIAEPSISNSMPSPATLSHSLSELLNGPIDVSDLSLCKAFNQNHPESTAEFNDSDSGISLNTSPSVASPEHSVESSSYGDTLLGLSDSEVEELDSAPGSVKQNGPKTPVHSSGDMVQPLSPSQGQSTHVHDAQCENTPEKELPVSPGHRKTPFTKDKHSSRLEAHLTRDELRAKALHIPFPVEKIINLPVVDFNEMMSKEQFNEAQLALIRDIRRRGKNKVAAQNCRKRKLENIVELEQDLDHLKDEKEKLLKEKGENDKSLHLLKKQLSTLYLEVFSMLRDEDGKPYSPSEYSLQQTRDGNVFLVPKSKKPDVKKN

[5] = target: T2, NRF1 (Homo sapiens) (UniProt Q14494); assay: EMSA; conditions: NRF1 lysate without added MAFG; 20 mM HEPES (pH not stated), 4 mM MgCl2, 20 mM KCl, 5 mM DTT, 1 mM EDTA, 100 ug/ml BSA, 4% glycerol, poly(dI-dC), 30 min room temperature; native gel 1X TBE; protein translated in vitro; protein details: His (plasmid pPB-N-His-NRF1, abm PV028854); label: IRDye-700 as probe, unlabeled as competitor
T2 sequence (looked up, limits assumed): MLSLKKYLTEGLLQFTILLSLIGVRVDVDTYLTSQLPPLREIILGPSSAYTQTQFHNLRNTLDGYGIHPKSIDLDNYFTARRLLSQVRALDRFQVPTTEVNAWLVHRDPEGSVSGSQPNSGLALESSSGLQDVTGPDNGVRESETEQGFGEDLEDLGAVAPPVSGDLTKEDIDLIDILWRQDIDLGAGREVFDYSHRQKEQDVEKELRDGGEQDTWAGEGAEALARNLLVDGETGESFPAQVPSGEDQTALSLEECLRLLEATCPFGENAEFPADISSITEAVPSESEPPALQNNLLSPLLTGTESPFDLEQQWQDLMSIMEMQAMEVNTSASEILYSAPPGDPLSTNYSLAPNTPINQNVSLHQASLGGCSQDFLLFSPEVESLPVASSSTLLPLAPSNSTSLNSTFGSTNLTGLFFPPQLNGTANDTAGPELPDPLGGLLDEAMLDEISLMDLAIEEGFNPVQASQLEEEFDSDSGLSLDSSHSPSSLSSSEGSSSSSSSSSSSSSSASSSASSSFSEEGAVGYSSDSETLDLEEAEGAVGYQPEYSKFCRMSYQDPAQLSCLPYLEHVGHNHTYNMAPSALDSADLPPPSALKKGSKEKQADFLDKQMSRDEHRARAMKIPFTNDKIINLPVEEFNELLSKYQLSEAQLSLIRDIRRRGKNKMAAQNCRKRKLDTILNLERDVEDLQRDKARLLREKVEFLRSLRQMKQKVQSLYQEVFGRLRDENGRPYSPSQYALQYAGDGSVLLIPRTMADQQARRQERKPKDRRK

[6] = system: NRF1 + MAFG; assay: competition EMSA; conditions: unlabeled vs labeled N1, legend: competes less efficiently than A allele, main text: does not compete; 20 mM HEPES (pH not stated), 4 mM MgCl2, 20 mM KCl, 5 mM DTT, 1 mM EDTA, 100 ug/ml BSA, 4% glycerol, poly(dI-dC), 30 min room temperature; native gel 1X TBE; protein translated in vitro; protein details: His (plasmid pPB-N-His-NRF1, abm PV028854); label: unlabeled competitor

Sequence	binding result [1]	binding result [2]	binding result [3]	binding result [4]	binding result [5]	binding result [6]
AATCCGCAGTCACAGTGACTCAGCAGAATCTGAGCCTAG (double strand) [NQO1 ARE WT (NQO1WT)]	no binding	no binding	no binding	no binding	no binding	–
CTGCGCTCCAAACCCGCTGTGTCGTACCATACCGGATGT (double strand) [MS4A6A rs667897G]	–	–	–	–	–	binds more weakly
